Target: T1, human TRPV3 (Homo sapiens, UniProt Q8NET8)
T1 sequence (Q8NET8 1-790): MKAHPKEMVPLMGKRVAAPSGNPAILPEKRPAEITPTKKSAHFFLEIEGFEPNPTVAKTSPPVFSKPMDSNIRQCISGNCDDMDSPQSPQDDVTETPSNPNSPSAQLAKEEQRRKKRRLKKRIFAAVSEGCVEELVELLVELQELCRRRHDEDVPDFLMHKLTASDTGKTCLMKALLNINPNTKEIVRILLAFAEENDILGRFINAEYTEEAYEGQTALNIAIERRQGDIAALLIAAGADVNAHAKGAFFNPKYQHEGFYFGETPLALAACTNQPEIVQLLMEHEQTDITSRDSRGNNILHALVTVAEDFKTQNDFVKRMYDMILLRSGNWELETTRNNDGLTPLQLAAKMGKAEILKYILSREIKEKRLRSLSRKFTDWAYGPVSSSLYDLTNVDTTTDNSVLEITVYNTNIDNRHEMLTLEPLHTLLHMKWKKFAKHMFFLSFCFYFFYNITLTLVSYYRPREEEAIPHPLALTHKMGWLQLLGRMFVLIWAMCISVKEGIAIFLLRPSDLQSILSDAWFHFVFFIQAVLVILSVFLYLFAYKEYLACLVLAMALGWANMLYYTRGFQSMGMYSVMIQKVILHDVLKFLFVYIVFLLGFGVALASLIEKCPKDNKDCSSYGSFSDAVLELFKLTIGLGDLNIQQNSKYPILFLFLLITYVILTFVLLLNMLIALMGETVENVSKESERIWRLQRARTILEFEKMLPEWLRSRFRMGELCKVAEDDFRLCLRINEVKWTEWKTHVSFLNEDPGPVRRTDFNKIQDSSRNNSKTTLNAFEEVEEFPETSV
Assay: Re-evaluation of screening hits as TRPV3 agonists
Format: cell-based

TRPV3 agonist or antagonist activity, screening results: neither a TRPV3 agonist nor antagonist
Compound: CCN(CC)CCOC(=O)C1(C2CCCCC2)CCCCC1 [dicyclomine]

— article PMC4115637 (Pharmacology Research & Perspectives, 2014)
